According to publication PMC2931690:
No constants are given. Whether binding was seen depends on the method and setting. In cells and extracts the contact can be indirect. Some results given as binding are weak or reduced against the parent protein; the word gives no strength.

By UniProt entry, the sequences of proteins in these tests, tags left out.
UniProt Q3UND0: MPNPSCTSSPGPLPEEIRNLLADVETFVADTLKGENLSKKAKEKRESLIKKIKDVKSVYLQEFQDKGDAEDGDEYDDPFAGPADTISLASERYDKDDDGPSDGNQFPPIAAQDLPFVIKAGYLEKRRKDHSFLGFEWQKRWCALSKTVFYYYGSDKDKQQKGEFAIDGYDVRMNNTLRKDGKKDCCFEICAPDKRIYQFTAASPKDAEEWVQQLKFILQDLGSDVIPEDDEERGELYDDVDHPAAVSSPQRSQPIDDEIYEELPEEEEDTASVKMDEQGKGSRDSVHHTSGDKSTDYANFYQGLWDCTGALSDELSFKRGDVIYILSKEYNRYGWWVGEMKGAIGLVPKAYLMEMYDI
UniProt P70218: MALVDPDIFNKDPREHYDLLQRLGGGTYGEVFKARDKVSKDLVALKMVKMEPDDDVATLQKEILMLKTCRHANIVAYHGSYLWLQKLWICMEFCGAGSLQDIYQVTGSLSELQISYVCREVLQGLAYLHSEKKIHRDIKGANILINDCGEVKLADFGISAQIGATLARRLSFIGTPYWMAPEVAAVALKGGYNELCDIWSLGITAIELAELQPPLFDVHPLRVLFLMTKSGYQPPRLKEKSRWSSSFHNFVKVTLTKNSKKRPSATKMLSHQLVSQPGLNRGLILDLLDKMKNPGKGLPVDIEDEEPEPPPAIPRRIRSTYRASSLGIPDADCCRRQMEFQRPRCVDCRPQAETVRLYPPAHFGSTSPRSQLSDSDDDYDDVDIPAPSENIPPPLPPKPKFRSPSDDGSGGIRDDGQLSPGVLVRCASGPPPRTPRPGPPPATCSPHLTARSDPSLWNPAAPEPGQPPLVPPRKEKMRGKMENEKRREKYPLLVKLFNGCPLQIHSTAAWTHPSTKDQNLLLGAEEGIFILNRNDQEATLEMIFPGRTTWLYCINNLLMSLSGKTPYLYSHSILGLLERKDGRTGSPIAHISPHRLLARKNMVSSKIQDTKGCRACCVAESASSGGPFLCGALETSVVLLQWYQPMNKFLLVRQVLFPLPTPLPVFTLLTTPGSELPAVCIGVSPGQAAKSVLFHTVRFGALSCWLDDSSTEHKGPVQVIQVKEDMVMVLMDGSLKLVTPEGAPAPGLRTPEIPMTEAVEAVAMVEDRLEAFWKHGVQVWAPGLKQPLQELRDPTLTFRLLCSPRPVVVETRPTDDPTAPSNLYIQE

Biological target: SKAP55 homologue (SKAP-HOM) (mouse (endogenous in Wehi 231)) (UniProt Q3UND0)
Experiment: co-IP; SKAP-HOM immunoprecipitated from lysates of unstimulated Wehi 231 co/kd cells (1% Triton X-100, 10 mM Tris pH 7.5, 150 mM NaCl, 5 mM EDTA, 10 mM NaF), 3 h at 4°C; Western blots for SKAP-HOM, HPK1 and RIAM

For “Hematopoietic progenitor kinase 1 (HPK1) (from UniProt P70218 1-827)”, the binding was “binds”.
